# In patent EP4714978A1 (Neukio Biotherapeutics (Shangai ) Co., Ltd., dated 2026):
# These are yes or no findings as the source states them, for the method shown. Some results given as binding are weak or reduced against the parent protein; the word gives no strength. Sequences can lack the tags named with a protein.
# T1: human DLL3 protein (human, UniProt Q9NYJ7 27-492, limits assumed)
# T1 construct: Soluble human DLL3 protein used in BLI; also called Delta-like protein 3
# T1 sequence (looked up): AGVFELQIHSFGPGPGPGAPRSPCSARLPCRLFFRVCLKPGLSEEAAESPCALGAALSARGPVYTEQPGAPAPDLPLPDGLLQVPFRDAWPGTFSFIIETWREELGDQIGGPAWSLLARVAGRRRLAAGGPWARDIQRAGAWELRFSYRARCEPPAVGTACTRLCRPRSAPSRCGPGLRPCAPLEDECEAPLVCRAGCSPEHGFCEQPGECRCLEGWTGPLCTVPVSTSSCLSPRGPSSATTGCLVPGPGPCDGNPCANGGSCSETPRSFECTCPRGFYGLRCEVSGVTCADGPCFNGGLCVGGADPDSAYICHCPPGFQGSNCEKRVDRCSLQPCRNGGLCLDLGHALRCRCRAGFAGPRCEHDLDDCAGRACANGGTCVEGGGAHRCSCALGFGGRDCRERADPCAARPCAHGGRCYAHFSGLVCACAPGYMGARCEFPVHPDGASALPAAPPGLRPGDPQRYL
# Molecular target: T1, human DLL3 protein
# Assay: BLI, comparison with AMG757 told in the discussion
binder,measurement,value
"Ab.76 scFv-human IgG Fc (Fc fusion, not shown: human IgG Fc) EIVMTQSPATLSVSPGERATLSCRASQSVSSNLAWYRQKPGQAPRLFIYGAYTRATDIPARFSGSGSGTEFTLTISSLQSEDFAVYYCQQYNNWPFTFGPGTKVDIKGGGGSGGGGSGGGGSEVQMVESGGVLVQPGMSLRLSCAASGFTFDDYAMHWVRQPPGKGLEWVSVISWNSGSIGYADSVKGRFTISRDNAKNSLYLQMNSLRAEDTAFYYCAKDLEGGVMDFDYWGQGTLVTVSS",binding,binds
